In US20050108047A1, “Business methods for commercializing antibiotics” (priority 2003, published 2005):
For at least one compound, name, drawing or mass did not settle the structure.

Legend:
[1] = cited from earlier work
E. coli MG1655 = assay: Rifampicin pre-exposure, then plating on ciprofloxacin agar

Structure (SMILES)	FREQUENCY of SPONTANEOUS RESISTANCE [1]	number of ciprofloxacin resistant colonies after rifampicin pre-incubation (E. coli MG1655; 4 mg/mL rifampicin in PBS, four days, 37° C., plated on 35 ng/mL ciprofloxacin)	number of ciprofloxacin resistant cells after rifampicin pre-incubation (E. coli MG1655; 12 or 36 mg/mL rifampicin in PBS, four days, 37° C., plated on 35 ng/mL ciprofloxacin)	increase in ciprofloxacin resistant cells after rifampicin pre-incubation, UmuDC deletion strain (E. coli MG1655; UmuDC deletion strain)
COc1c(N2C[C@@H]3CCCN[C@@H]3C2)c(F)cc2c(=O)c(C(=O)O)cn(C3CC3)c12 [AVELOX, moxifloxacin]	1.8 × 10^−9-1 × 10^−11			
C[C@H]1COc2c(N3CCN(C)CC3)c(F)cc3c(=O)c(C(=O)O)cn1c23 [LEVAQUIN]	1 × 10^−9-1 × 10^−10			
CO[C@H]1/C=C/O[C@@]2(C)Oc3c(C)c(O)c4c(O)c(c(/C=N/N5CCN(C)CC5)c(O)c4c3C2=O)NC(=O)/C(C)=C\C=C\[C@H](C)[C@H](O)[C@@H](C)[C@@H](O)[C@@H](C)[C@H](OC(C)=O)[C@@H]1C [rifampicin]		had no effect	dramatic increase	essentially completely lost
